The results in this text go back to publication PMC10688608.

Sequences of proteins named here, by UniProt entry; tags and fusion partners are left off.
UniProt Q96EB6: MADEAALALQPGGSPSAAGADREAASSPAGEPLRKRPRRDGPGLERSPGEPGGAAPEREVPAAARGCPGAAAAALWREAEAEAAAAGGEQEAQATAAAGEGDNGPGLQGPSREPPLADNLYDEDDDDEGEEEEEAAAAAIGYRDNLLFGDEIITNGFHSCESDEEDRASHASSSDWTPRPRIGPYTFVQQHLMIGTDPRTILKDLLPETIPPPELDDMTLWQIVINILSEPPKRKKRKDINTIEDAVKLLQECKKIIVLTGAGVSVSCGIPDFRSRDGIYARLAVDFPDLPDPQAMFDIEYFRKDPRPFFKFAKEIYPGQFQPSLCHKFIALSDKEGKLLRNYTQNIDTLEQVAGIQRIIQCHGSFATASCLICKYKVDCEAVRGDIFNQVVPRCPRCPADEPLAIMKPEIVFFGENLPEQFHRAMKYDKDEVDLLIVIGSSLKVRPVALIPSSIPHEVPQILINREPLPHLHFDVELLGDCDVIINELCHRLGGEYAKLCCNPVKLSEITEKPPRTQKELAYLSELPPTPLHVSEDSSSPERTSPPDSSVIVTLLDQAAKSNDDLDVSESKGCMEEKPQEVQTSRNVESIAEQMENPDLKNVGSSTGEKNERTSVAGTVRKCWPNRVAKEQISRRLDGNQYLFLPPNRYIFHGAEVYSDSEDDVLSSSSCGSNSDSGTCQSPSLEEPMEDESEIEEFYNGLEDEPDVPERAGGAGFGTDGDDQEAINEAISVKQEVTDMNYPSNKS
UniProt O75376: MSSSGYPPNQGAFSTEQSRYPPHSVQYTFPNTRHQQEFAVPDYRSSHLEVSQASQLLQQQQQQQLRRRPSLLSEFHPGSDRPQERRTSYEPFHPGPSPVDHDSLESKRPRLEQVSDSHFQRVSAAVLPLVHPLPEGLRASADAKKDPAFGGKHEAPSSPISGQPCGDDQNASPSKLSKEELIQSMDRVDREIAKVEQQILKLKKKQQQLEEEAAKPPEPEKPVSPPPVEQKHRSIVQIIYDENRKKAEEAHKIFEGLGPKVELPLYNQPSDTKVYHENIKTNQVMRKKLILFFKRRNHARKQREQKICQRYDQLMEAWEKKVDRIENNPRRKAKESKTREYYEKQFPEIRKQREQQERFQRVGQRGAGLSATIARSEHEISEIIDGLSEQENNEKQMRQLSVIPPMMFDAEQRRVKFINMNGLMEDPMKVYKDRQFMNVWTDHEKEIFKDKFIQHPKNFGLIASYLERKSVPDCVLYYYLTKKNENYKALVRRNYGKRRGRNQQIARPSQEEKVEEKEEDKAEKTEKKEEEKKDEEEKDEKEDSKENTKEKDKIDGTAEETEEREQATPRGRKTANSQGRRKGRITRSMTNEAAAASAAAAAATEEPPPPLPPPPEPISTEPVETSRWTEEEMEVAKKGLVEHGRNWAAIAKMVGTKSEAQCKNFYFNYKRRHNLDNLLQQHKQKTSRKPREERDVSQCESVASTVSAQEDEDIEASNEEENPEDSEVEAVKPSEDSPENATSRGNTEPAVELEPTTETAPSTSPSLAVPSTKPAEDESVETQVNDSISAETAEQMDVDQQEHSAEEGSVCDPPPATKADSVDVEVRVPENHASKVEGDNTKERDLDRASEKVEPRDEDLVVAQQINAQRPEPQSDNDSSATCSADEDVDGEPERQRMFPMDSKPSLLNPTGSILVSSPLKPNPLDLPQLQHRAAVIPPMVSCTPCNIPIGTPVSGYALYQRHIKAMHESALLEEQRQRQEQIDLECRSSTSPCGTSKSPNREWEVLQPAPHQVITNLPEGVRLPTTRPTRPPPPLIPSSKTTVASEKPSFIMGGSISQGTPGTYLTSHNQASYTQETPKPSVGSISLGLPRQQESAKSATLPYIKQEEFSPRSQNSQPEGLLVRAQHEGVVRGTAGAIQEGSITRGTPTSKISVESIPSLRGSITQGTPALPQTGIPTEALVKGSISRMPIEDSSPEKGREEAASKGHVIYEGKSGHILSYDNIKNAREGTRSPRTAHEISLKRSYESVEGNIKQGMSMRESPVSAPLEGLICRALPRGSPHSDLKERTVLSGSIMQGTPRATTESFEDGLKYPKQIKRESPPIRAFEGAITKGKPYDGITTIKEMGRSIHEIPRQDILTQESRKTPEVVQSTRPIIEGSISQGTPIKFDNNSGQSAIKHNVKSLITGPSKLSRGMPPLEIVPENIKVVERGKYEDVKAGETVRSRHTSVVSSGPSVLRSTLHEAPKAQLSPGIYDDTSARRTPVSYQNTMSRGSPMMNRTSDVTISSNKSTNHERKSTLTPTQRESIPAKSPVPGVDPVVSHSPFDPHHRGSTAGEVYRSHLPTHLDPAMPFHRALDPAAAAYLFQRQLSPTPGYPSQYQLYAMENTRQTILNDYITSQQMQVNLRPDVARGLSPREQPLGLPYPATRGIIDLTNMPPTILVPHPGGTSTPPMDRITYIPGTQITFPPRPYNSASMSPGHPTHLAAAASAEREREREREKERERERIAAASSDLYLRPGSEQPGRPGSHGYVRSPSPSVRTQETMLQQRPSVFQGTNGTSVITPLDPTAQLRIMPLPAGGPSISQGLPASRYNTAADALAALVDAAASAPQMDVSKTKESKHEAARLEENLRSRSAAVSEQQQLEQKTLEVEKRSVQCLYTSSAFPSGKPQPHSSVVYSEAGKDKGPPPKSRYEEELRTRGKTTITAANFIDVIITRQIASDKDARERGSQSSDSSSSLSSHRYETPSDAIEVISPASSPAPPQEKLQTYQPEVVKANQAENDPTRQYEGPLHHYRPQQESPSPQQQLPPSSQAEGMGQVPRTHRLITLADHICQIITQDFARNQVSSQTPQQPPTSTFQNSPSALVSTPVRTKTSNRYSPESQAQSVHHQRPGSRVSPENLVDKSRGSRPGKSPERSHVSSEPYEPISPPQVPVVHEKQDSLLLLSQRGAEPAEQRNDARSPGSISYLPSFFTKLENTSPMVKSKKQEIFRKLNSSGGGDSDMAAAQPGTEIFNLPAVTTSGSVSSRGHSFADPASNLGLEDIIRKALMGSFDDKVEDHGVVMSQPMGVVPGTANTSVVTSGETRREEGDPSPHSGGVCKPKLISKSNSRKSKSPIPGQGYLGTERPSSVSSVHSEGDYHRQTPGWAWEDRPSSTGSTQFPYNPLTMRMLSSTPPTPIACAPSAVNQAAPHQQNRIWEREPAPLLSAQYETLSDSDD

Results are given in words; binding and its absence hold for the method and conditions named. Binding seen in cells or lysates may run through a third protein. Some binding calls cover weakened binding; strength is not graded here.

This test addresses Sirtuin 1 (human (endogenous in HEK-293T)) (UniProt Q96EB6). As to the kind of experiment: co-IP; anti-SIRT1 antibody or IgG isotype control; HEK-293T cells transfected with empty vector or Snhg9-encoding vector; detection by immunoblot.

In the case of “nuclear receptor corepressor 1 (from UniProt O75376 1-2440)”, the binding result was “binds”.
